Laboratory results as given in article PMC7000404.
These are yes or no findings as the source states them, for the method shown. In cells and extracts the contact can be indirect. Some results given as binding are weak or reduced against the parent protein; the word gives no strength. For some assays here: Tags and fused reporters may be left off the sequences shown.

Chains of the proteins cited; added tags and fusions are not shown.
UniProt P25490: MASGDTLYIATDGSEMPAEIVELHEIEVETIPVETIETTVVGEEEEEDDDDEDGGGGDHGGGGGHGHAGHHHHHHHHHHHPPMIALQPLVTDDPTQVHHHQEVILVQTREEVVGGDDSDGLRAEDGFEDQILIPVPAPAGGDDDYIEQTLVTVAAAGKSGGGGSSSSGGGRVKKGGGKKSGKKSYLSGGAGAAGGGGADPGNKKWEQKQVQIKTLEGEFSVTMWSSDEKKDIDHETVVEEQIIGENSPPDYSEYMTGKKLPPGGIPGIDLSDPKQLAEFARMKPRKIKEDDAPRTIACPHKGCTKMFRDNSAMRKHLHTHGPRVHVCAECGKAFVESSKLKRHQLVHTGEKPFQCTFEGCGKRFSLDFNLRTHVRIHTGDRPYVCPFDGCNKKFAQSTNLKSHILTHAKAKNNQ

Key:
[1] = target: T1, Recombinant glutathione S-transferase-USP21 (GST-USP21) (UniProt Q9UK80); experiment: pull-down; GST-USP21 from E. coli on glutathione Sepharose 4B beads, incubated with lysates of transfected HEK293T cells; washed three times with IP lysis buffer; western blot; only the target purified
T1 sequence: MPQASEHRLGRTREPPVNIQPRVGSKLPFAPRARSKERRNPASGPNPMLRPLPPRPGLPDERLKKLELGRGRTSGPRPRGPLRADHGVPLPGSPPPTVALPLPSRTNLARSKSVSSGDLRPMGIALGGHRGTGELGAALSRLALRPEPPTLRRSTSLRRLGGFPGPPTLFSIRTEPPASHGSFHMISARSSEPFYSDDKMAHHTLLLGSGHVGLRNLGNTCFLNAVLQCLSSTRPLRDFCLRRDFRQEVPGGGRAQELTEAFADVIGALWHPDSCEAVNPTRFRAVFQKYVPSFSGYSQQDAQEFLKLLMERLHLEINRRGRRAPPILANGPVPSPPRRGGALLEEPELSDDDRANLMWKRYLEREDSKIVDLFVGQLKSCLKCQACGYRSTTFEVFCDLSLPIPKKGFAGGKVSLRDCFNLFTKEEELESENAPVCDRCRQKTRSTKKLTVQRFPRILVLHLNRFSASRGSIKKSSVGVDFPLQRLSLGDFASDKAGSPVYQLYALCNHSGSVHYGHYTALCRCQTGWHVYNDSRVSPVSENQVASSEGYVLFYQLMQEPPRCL

[2] = target: T2, USP21 (human (endogenous in A549)) (UniProt Q9UK80); experiment: co-IP; A549 cell lysates in RIPA buffer with 10 mM N-ethylmaleimide and protease and phosphatase inhibitors; IP with anti-YY1 or anti-USP21 antibody and protein A-agarose beads, 1 h at 4 °C; western blot
T2 sequence: T1 sequence

binding [1]	binding [2]	Substance
binds	–	YY1 in lysates of transfected HEK293T cells (from UniProt P25490 1-414)
–	binds	Yin Yang-1 (YY1) (from UniProt P25490 1-414)
